Patent US20040205843A1
These are yes or no findings as the source states them, for the method shown. Binding seen in cells or lysates may run through a third protein. Some entries that bind do so weakly or less than the wild type.

By UniProt entry, the sequences of proteins in these tests, tags left out. Where a name states a change or a piece, a line headed by the entry shows the natural chain unless it says otherwise.
UniProt P03567: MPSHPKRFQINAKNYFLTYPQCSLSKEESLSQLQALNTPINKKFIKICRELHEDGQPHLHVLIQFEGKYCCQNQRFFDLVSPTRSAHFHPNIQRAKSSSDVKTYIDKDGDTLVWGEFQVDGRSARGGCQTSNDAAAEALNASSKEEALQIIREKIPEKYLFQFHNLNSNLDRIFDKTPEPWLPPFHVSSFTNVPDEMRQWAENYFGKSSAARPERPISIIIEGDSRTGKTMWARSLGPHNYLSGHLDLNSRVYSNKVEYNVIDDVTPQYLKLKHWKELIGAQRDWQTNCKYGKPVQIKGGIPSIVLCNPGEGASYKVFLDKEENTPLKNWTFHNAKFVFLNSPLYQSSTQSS

Target: Full length GST-AL1 1-352 (tomato golden mosaic virus (TGMV)) (UniProt P03567)
Experiment: GST co-purification from insect cells, immunoblot

“AL1 160-352 (from UniProt P03567 160-352)” was tested. Which binding did it give?
The binding was “binds”.
